Measurements taken from PubChem BioAssay AID540303 (National Center for Advancing Translational Sciences (NCATS), 2011).
About 1,000 (0.3%) of roughly 330,000 compounds were called active. The shares of active, inactive and inconclusive entries below differ from those in the screen. Calls follow the shape of the dose curve; as a rule, active = well fitted inhibition curve with a large enough effect; inconclusive = small, poorly fitted or top-dose-only effect; inactive = no such curve, though single readings can be large or run the other way; tested in mouse RAW 264.7 cells. Potencies of inconclusive entries are doubtful fits and often do not repeat.

Assay: qHTS for Inhibitors of Cell Surface uPA Generation; also: nearly all actives have a fitted effect of over 55% in size
Details: cell surface uPA generation assay; series mostly up to 38.3 µM; activity change, negative = inhibition: at the top concentration
Summary of the method: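 ATP-Lite luminescence in RAW 264.7 cells after 24 h of exposure to compound, tested up to 38.3 uM final in 1:5 steps. Raised ATP reflects inhibition of uPA-dependent LF delivery to the cytoplasm.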
% is scaled to controls: 0 for no effect and ±100 for the full control effect; potency is read from the fitted curve at half-maximal effect.

SMILES | Potency | activity change, negative = inhibition
CCOc1ccc(NS(=O)(=O)c2ccc(C(=O)N(C)CC(=O)Nc3cccc(OC)c3)cc2)cc1 | inconclusive: 7.08 µM [inhibitor, single point] | 
CSc1ncccc1C(=O)OCC(=O)c1ccc[nH]1 | inconclusive: 0.0158 µM [inhibitor, full curve, poor fit] | 
O=c1cc(-c2ccccc2)[nH]c2cc(Cl)ccc12 | active: 0.0447 µM | 
CCOc1ccc(OCC)c(NC(=O)CN2CCN(c3cc(C)ccc3C)CC2)c1 |  | inactive: 16.4%
CCOC(=O)c1ccc(NC(=O)CN2C(=O)NC3(CCCCCCC3)C2=O)cc1 | inconclusive: 31.6 µM [inhibitor, partial curve, poor fit] | 
CCn1c(NCc2ccco2)nc2ccccc21 |  | inactive: -2.27%
C=CCOC(=O)c1[nH]c2c(c1C)C(=O)CC(c1ccco1)C2 (centres undefined) | inconclusive: 0.891 µM [inhibitor, full curve, poor fit] | 
Cc1cc(C)c(OCCCCN2CCNCC2)c(C)c1 | inconclusive: 8.91 µM [inhibitor, partial curve, poor fit] | 
CC(=O)Oc1ccc(C(=O)Nc2nccs2)cc1 | inconclusive: 5.62 µM [inhibitor, partial curve, poor fit] | 
Cn1nnnc1SCC(=O)Nc1cc(S(=O)(=O)N2CCCC2)ccc1Cl |  | inactive: 2.1%
CN(C)c1ccc(-c2nc3cc(N)ccc3o2)cc1 | inconclusive: 3.55 µM [inhibitor, full curve, poor fit] | 
O=C(NCC1CCCO1)c1cc(-c2ccc(F)cc2)no1 (centres undefined) | inconclusive: 7.08 µM [inhibitor, partial curve, poor fit] | 
Nc1ccc(S(=O)(=O)Nc2nccc(/C=C/c3cccc(Br)c3)n2)cc1 | inconclusive: 3.98 µM [inhibitor, partial curve] | 
CCCCOc1ccc(C(=O)N/C(=C/C=C/c2ccccc2)C(=O)NC)cc1 | inconclusive: 12.6 µM [inhibitor, single point] | 
CCOP(=O)(OCC)c1nc(-c2ccc(Cl)cc2)oc1NCc1ccccc1 |  | inactive: -8.5%
Cc1ccc(CNC(=O)C2CC(c3ccccc3F)=NO2)cc1 (centres undefined) | inconclusive: 12.6 µM [inhibitor, single point] | 
COc1ccc(S(=O)(=O)Nc2cc(C)on2)cc1 |  | inactive: -0.672%
O=C(Nc1cccc2ccccc12)c1ccc([N+](=O)[O-])o1 | inconclusive: 12.6 µM [inhibitor, partial curve, poor fit] | 
O=C(/C=C/c1ccccc1)c1c[nH]c2ccccc12 | inconclusive: 2.82 µM [inhibitor, full curve] | 
COc1ccc(C(CC(=O)c2ccc(C)cc2)C(C#N)C#N)cc1OC (centres undefined) |  | inactive: 0.278%
CC(C)NCCCCOc1ccc(Br)cc1Cl | inconclusive: 3.98 µM [inhibitor, partial curve, poor fit] | 
Cc1ccnn1CC(=O)N/N=C/c1ccc([N+](=O)[O-])s1 | inconclusive: 10 µM [inhibitor, partial curve, poor fit] | 

SMILES | Potency | activity change, negative = inhibition
COc1ccc(Cc2nnc(SCC(=O)N3CCCC(C)C3)o2)cc1 (centres undefined) | inconclusive: 3.55 µM [inhibitor, partial curve, poor fit] | 
CC(C)(C)Nc1nc(Nc2ccc([N+](=O)[O-])cc2)nc(NC(C)(C)C)n1 |  | inactive: -0.231%
CCCc1cc(C(=O)Nc2cccnc2Cl)no1 |  | inactive: 0.82%
CC(C)CC(COCc1cccc(Cl)c1)N1CCN(C(=O)c2ccc(C(F)(F)F)cc2)CCC1=O (centres undefined) |  | inactive: -7.51%
COc1ccc2c(c1)C(=O)N1[C@H]3c4cc(OC)ccc4OC[C@@H]3[C@H](c3ccccc3)[C@]1(C)C(=O)N2 | inconclusive: 11.2 µM [inhibitor, partial curve, poor fit] | 
Cc1ccc(-c2cc3nn(-c4ccccc4)c(N)c3c(=O)o2)cc1 |  | inactive: -4.96%
Cn1cc(C2OC(=O)c3ccccc32)c2ccccc21 (centres undefined) |  | inactive: -8.76%
CCN(CC)c1ccc2cc(NC(=O)CCC(=O)O)c(=O)oc2c1 | inconclusive: 6.31 µM [inhibitor, partial curve, poor fit] | 
O=C1c2cc(F)ccc2-n2c1nc1ccccc1c2=O |  | inactive: -1.19%
Cc1cccc(-n2ncc3c(N(C)Cc4ccccc4)ncnc32)c1 | inconclusive: 12.6 µM [inhibitor, partial curve, poor fit] | 
CC(C)[C@H](NS(=O)(=O)c1ccccc1)C(=O)OCC(=O)NC1CCCCC1 | inconclusive: 2.51 µM [inhibitor, partial curve] | 
Cc1c(C=O)c2ccccc2n1CCOc1ccccc1F | inconclusive: 10 µM [inhibitor, partial curve, poor fit] | 
Cc1nn(C(=O)CCCC(=O)NCc2ccccc2)c2ccccc12 | inconclusive: 12.6 µM [inhibitor, single point] | 
CN(C)C1CCN(Cc2cc(COCc3ccccc3)c3cccnc3c2O)C1 (centres undefined) | inconclusive: 11.2 µM [inhibitor, partial curve, poor fit] | 
COc1cccc(CN2C(=O)CCC2(C)C(=O)NCCc2ccc(OC)c(OC)c2)c1 (centres undefined) |  | inactive: 0.242%
Cc1c(C(=O)Nc2ccncc2)sc2nc(-c3ccc(F)cc3)cn12 | inconclusive: 12.6 µM [inhibitor, single point] | 
Oc1ccc(/C=N/Nc2ccc(Cl)nn2)cc1O | inconclusive: 3.16 µM [inhibitor, partial curve, poor fit] | 
COc1ccc(NC(=O)c2ncn[nH]2)cc1 |  | inactive: -2.01%
Cc1ccccc1Oc1ccc2c(c1)[C@@H]1C[C@H](N(C)C(=O)Nc3cc(Cl)cc(Cl)c3)[C@H]([C@H](C)O)C(=O)N1CC2 | inconclusive: 11.2 µM [inhibitor, single point] | 
Cn1c(/C(C#N)=C/c2ccc(O)cc2)nc2ccccc21 | inconclusive: 7.94 µM [inhibitor, partial curve, poor fit] | 
CCOC(=O)C1(CCc2ccccc2)CCN(Cc2ccc(O)cc2)CC1 | inconclusive: 8.91 µM [inhibitor, single point] | 
CC1CCCN(S(=O)(=O)c2cc(C(=O)NCc3ccco3)ccc2Cl)C1 (centres undefined) | inconclusive: 2.24 µM [inhibitor, full curve, poor fit] | 
Cc1ccc(NC(=O)CN2C(=O)N/C(=C/c3ccc(C)o3)C2=O)cc1 |  | inactive: -5.31%

In the list so far, these contain a cyano group.
SMILES | Potency | activity change, negative = inhibition
COc1ccc(C(CC(=O)c2ccc(C)cc2)C(C#N)C#N)cc1OC (centres undefined) |  | inactive: 0.278%
Cn1c(/C(C#N)=C/c2ccc(O)cc2)nc2ccccc21 | inconclusive: 7.94 µM [inhibitor, partial curve, poor fit] | 

(continued)

SMILES | Potency | activity change, negative = inhibition
COc1ccc(/C=N/NC(=O)c2ccc(NC(=O)c3cccc([N+](=O)[O-])c3)cc2)c(OC)c1 |  | inactive: -3.55%
CC1(C)CC(C)(c2ccc(O)cc2O)N(c2cccc(Cl)c2)C(=S)N1 (centres undefined) |  | inactive: 2.89%
N#CC1(c2ccc(NC(=O)c3ccccc3F)cc2)CCCC1 | inconclusive: 8.91 µM [inhibitor, partial curve, poor fit] | 
Cc1ccc2c(c1)[C@H]1[C@H](CO2)[C@H](c2ccccc2)[C@]2(C)C(=O)Nc3cc(F)ccc3C(=O)N12 | active: 7.08 µM | 
COc1ccc(C2NN=C(c3ccc(C)cc3)S2)cc1 (centres undefined) | inconclusive: 1 µM [inhibitor, full curve, poor fit] | 
COc1ccc(-c2ccc(SC)nn2)cc1 |  | inactive: -18.3%
O=C(Nc1ccc(S(=O)(=O)N2CCOCC2)cc1)c1ccc([N+](=O)[O-])cc1Cl | inconclusive: 0.562 µM [inhibitor, full curve, poor fit] | 
CC(C)(Cc1cc(CC(C)(C)C(=O)O)cc(C(C)(C)C)c1)C(=O)O | inconclusive: 3.16 µM [inhibitor, partial curve, poor fit] | 
CC(C)C[C@@H](CO)N(Cc1ccccc1)S(=O)(=O)N(Cc1ccccc1)[C@H](CO)CC(C)C | inconclusive: 11.2 µM [inhibitor, single point] | 
Cc1cc2c(c(C)c1CCO[C@@H]1O[C@H](CO)[C@@H](O)[C@H](O)[C@H]1O)C(=O)[C@@H](C)[C@@H]2O |  | inactive: -7.93%
Cc1ccccc1C(=O)Nc1ccc2c(c1)OCCO2 | inconclusive: 10 µM [inhibitor, partial curve, poor fit] | 
COc1ccc(-n2cc(-c3ccccc3)[nH]c2=S)c(OC)c1 | inconclusive: 12.6 µM [inhibitor, single point] | 
COc1cc(OC)cc(C(=O)Nc2ccc3c(c2)CCCN3C(=O)c2cccs2)c1 |  | inactive: -14.4%
C=CCn1c(SCC(=O)Nc2ccc3c(c2)OCCO3)nc2cc(C(=O)O)ccc2c1=O |  | inactive: 6.76%
COC(=O)C1CCN(C(=O)c2cc(S(=O)(=O)N3CCCCC3)ccc2Cl)CC1 | inconclusive: 0.891 µM [inhibitor, full curve, poor fit] | 
COc1ccc(/C=C/C(=O)Nc2ccc(S(=O)(=O)Nc3cc(C)nc(C)n3)cc2)cc1OC |  | inactive: -0.624%
CC/C(=C(\c1ccccc1)c1ccc(OCCN(C)C)cc1)c1ccccc1 | inactive | 
COc1ccc(OC)c(NC(=O)CSc2nnnn2-c2ccc3c(c2)OCO3)c1 | inconclusive: 11.2 µM [inhibitor, single point] | 
COc1ccc(OCC(=O)Nc2ccc(OC)c(S(=O)(=O)N3CCCCC3)c2)cc1 | inconclusive: 12.6 µM [inhibitor, single point] | 
CCC1(c2ccc(Cl)cc2)NC(=S)N(c2ccc(C)c(C)c2)N1 (centres undefined) |  | inactive: 6.9%
CN(C(=O)NC1CCCCC1)c1ccccc1 |  | inactive: -2.2%
O=C(C1=C[C@@H](c2csc3ccccc23)C[C@@H](OCc2ccc(CO)cc2)O1)N1CCN(Cc2ccc3c(c2)OCO3)CC1 | inconclusive: 28.2 µM [inhibitor, single point] | 
O=C(N/N=C/c1ccccn1)c1cc(-c2cccc3ccccc23)n[nH]1 | inconclusive: 12.6 µM [inhibitor, single point] | 
